Where a name gives a salt, the structure may show the parent alone. The list shows a part of the results. The calls rarely recur for the same compound in another form.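 Kinases were expressed as nanoluciferase fusions in K562 cells and luminescence was read every 4 h between 2 and 18 h as percent of control, DMSO set to 100% and a positive control to 0%. A time point counts as decreased when the signal drops significantly (2 sigma). The hit call is the authors' own, does not follow from the count of time points alone, and its rule is not shown.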
Columns and labels:
Test in all cases: number of time points (of 5) at which kinase-Nluc abundance scored as decreased, DMSO-normalised (count); higher = more persistent destabilization
Conditions in all cases: K562; 2-18 h
FLT3 = FLT3 (UniProt P36888)
FYN = FYN (UniProt P06241)
GSK3A = GSK3A (UniProt P49840)
HER2 = HER2 (UniProt P04626)
INSRR = INSRR (UniProt P14616)
IRAK3 = IRAK3 (UniProt Q9Y616)
JAK1 = JAK1 (UniProt P23458)
LCK = LCK (UniProt P06239)
LIMK1 = LIMK1 (UniProt P53667)
LIMK2 = LIMK2 (UniProt P53671)
LMTK2 = LMTK2 (UniProt Q8IWU2)
LYN = LYN (UniProt P07948)
MAP2K1 = MAP2K1 (UniProt Q02750)
MAP2K2 = MAP2K2 (UniProt P36507)
MAP4K2 = MAP4K2 (UniProt Q12851)
MAPK1 = MAPK1 (UniProt P28482)
MAPK4 = MAPK4 (UniProt P31152)
MAPKAPK2 = MAPKAPK2 (UniProt P49137)
MKNK1 = MKNK1 (UniProt Q9BUB5)
NTRK2 = NTRK2 (UniProt Q16620)

Chains of the proteins cited; added tags and fusions are not shown. Lines headed by an entry give the natural chain unless they say otherwise; changes in a name come on top.
UniProt P36888, whole entry: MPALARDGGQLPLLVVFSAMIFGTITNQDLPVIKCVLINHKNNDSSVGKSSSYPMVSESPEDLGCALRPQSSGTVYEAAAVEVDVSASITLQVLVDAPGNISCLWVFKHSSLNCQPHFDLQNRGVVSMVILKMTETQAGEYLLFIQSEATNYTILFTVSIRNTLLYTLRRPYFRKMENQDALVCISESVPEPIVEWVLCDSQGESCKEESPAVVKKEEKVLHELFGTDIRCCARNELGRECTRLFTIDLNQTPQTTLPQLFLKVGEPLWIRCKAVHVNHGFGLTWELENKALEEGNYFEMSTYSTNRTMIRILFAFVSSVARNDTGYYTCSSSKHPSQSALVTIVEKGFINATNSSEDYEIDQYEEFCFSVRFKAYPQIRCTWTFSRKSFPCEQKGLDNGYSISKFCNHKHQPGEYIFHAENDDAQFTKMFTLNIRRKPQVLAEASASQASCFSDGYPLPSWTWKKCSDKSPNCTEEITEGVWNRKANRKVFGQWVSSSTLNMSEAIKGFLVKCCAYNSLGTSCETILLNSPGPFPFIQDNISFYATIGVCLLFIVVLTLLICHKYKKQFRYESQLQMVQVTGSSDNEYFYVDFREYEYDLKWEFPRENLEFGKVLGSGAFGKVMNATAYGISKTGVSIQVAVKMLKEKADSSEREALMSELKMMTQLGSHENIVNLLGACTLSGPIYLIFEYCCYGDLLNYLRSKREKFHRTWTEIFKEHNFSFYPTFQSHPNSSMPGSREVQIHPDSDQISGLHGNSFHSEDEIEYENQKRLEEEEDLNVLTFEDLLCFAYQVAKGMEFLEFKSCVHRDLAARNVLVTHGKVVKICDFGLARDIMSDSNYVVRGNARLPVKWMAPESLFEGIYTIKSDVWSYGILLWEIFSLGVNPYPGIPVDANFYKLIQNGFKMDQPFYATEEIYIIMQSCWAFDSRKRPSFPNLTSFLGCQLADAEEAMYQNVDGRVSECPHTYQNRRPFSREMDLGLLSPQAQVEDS
UniProt P06241, whole entry, looked up: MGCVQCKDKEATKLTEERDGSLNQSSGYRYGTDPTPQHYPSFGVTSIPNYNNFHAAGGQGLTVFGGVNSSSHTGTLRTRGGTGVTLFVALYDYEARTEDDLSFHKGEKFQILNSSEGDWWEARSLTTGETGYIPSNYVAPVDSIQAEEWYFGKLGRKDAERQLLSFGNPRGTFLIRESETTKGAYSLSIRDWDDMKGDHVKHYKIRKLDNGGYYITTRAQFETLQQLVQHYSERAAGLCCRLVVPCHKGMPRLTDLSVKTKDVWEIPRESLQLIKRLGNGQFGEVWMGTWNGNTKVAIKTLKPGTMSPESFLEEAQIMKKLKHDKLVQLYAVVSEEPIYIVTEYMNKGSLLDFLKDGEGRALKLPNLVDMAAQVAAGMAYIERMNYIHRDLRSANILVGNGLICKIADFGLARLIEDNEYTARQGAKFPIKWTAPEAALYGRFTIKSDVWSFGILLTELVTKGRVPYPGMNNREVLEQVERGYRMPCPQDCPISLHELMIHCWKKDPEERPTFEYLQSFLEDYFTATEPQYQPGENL
UniProt Q9Y616: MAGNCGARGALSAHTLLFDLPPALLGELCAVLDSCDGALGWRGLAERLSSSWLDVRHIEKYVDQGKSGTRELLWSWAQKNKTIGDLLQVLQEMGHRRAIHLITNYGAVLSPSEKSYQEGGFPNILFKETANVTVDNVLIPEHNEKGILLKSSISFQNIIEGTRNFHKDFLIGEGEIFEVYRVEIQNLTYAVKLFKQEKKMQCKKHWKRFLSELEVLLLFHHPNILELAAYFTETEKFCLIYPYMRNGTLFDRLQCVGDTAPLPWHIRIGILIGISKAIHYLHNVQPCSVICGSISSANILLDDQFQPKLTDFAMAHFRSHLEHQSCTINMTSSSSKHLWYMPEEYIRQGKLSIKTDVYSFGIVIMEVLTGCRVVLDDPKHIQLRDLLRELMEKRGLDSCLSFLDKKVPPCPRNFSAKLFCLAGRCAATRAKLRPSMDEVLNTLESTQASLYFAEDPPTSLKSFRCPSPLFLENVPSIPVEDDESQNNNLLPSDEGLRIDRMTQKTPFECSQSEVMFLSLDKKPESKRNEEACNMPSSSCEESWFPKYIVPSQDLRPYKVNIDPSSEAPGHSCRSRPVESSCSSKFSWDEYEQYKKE
UniProt P23458: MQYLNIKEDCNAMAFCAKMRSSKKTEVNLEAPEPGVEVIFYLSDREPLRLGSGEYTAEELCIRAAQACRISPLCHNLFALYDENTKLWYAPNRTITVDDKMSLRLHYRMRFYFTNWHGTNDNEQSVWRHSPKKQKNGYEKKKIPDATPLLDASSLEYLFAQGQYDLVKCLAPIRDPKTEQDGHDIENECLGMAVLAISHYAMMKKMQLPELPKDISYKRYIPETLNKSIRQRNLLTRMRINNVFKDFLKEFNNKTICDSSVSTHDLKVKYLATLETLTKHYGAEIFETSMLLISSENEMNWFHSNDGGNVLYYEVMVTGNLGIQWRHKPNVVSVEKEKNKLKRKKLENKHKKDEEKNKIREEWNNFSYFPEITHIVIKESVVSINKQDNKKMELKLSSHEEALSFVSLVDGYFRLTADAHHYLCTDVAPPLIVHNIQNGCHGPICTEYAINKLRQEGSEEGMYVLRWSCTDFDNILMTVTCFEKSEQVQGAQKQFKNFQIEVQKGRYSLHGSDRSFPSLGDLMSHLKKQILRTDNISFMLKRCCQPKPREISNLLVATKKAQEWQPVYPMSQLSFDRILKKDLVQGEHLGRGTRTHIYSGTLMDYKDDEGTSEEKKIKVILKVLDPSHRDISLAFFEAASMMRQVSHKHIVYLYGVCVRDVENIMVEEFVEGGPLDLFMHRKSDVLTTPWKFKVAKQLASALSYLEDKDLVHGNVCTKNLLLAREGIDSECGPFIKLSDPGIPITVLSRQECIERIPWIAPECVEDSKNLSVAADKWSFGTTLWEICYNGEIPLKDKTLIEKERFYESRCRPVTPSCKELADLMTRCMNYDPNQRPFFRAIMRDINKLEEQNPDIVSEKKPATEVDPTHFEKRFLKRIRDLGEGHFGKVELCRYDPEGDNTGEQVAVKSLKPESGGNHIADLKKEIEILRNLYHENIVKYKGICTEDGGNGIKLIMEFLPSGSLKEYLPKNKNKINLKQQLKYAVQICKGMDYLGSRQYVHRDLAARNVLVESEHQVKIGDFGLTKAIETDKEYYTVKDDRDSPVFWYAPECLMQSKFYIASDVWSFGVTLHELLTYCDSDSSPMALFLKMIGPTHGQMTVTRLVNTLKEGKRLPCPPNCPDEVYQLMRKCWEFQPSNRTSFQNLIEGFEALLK
UniProt P53667: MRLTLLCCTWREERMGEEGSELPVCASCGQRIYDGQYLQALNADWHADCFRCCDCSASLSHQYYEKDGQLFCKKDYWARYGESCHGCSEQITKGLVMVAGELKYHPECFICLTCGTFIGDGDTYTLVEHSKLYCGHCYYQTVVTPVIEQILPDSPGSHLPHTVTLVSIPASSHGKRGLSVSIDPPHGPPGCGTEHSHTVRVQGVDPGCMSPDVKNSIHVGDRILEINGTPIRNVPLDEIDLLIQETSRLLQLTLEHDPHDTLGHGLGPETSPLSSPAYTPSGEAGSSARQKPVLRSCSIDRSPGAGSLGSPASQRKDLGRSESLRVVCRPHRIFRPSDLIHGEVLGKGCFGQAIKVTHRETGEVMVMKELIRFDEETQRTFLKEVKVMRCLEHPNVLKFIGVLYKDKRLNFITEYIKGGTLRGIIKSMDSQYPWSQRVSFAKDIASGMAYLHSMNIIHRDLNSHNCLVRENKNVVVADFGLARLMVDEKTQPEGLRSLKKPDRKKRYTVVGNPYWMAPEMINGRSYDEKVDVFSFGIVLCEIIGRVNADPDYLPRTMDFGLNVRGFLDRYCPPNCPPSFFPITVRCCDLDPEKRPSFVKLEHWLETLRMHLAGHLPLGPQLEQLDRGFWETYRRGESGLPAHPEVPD
UniProt P07948: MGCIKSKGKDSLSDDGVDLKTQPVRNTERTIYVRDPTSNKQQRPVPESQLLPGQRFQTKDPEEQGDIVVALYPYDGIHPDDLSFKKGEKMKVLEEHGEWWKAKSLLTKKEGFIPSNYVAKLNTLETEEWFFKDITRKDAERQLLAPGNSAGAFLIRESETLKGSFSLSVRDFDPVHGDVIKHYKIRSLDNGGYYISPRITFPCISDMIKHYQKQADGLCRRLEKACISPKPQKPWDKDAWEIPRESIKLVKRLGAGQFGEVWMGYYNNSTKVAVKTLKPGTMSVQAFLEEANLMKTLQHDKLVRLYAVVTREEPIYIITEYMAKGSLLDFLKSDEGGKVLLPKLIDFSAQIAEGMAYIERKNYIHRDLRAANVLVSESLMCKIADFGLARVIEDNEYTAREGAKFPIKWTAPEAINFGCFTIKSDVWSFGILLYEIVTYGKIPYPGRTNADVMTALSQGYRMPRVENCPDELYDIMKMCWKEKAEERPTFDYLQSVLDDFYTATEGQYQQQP
UniProt Q12851: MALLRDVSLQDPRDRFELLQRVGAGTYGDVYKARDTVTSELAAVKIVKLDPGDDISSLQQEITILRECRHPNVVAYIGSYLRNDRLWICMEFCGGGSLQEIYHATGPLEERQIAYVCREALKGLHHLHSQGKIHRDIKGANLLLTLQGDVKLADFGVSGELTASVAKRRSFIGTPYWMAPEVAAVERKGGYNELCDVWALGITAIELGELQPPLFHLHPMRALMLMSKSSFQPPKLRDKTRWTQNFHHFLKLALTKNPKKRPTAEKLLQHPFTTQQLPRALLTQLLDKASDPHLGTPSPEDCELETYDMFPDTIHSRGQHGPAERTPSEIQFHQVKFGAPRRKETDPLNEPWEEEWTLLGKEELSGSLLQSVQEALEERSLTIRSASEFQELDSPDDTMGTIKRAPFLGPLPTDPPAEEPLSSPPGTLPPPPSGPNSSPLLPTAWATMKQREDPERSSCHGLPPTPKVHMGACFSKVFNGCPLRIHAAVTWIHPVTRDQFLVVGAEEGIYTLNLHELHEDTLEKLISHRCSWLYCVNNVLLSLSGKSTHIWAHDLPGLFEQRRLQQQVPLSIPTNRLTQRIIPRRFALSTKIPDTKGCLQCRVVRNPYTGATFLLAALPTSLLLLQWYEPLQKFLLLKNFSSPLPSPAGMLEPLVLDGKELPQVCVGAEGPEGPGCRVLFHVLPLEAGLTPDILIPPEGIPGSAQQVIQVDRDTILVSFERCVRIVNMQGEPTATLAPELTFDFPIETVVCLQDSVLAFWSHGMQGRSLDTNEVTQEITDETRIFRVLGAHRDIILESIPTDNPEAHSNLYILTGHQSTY
UniProt P28482, whole entry: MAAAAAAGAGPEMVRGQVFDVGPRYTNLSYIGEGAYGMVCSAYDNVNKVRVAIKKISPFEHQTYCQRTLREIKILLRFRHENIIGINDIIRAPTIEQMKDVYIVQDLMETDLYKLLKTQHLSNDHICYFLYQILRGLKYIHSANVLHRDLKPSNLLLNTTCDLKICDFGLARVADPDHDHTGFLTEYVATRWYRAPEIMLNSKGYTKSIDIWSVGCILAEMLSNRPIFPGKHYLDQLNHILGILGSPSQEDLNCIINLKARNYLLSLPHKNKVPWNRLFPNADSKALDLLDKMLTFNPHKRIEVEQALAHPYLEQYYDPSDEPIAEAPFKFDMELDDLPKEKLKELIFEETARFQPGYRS
UniProt P31152, whole entry: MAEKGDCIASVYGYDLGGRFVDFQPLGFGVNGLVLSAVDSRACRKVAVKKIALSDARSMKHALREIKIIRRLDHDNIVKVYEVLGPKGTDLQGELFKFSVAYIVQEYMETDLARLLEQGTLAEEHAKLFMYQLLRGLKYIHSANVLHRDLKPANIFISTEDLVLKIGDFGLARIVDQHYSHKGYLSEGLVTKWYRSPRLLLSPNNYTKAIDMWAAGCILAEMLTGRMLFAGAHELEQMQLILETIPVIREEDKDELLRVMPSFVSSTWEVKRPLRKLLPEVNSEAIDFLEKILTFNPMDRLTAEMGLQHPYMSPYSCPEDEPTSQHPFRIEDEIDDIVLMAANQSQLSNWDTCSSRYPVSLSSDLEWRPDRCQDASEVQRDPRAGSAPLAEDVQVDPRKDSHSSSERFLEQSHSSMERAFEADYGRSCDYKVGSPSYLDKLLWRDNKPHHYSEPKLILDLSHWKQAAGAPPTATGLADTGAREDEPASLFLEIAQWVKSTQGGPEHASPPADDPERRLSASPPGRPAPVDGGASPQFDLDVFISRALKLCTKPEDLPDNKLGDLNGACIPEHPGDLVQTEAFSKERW

Measured: number of time points

COc1cc2ncn(-c3cc(OCc4ccccc4S(C)(=O)=O)c(C#N)s3)c2cc1OC (10 µM)
0: all assays above

Cc1cc(Nc2nc(N[C@@H](C)c3ccc(F)cc3)c(C#N)cc2F)n[nH]1 (10 µM)
1: LIMK1 | LMTK2
2: INSRR
0: all other assays above

Cc1cc2cc(Nc3ccnc(Nc4ccc5[nH]c(C)cc5c4)n3)ccc2[nH]1 (2.5 µM)
2: LMTK2
0: all other assays above

Cn1cnc(-c2cc3nccc(Oc4ccc(NC(=S)NC(=O)Cc5ccccc5)cc4F)c3s2)c1 [MGCD-265 analog] (10 µM)
3: FLT3 | IRAK3 | JAK1 | LMTK2 | MKNK1 | NTRK2
4: FYN | HER2 | INSRR
1: LCK | LYN | MAP2K2 | MAPK1
0: all other assays above

Nc1ncnc2c1c(-c1ccc(Oc3ccccc3)cc1)nn2C1CCNCC1 [N-piperidine Ibrutinib (hydrochloride)] (10 µM)
3: INSRR
2: LIMK1
0: all other assays above

CCn1c(-c2nonc2N)nc2cnc(Oc3cccc(NC(=O)c4ccc(OCCN5CCOCC5)cc4)c3)cc21 (10 µM)
3: HER2 | NTRK2
0: all other assays above

CC(C)=CCC[C@](C)(O[C@@H]1O[C@H](CO)[C@@H](O)[C@H](O)[C@H]1O)[C@H]1CC[C@]2(C)[C@@H]1[C@H](O)C[C@@H]1[C@@]3(C)CC[C@H](O)C(C)(C)[C@@H]3[C@@H](O[C@@H]3O[C@H](CO)[C@@H](O)[C@H](O)[C@H]3O[C@@H]3O[C@@H](C)[C@H](O)[C@@H](O)[C@H]3O)C[C@]12C [Ginsenoside Re] (10 µM)
0: all assays above

CCOc1ccc(C(=O)Nc2ncc([N+](=O)[O-])s2)cc1 (10 µM)
0: all assays above

O=c1oc2cc(O)ccc2c2ccccc12 [Urolithin B] (10 µM)
0: all assays above

C[C@@H](c1ccc2nccn2c1)n1nnc2ncc(-c3cnn(C)c3)nc21 [Savolitinib] (10 µM)
0: all assays above

CC(=O)c1c(C)c2cnc(Nc3ccc(N4CCN(CCCCNC(=O)COc5cccc6c5C(=O)N(C5CCC(=O)NC5=O)C6=O)CC4)cn3)nc2n(C2CCCC2)c1=O (stereo not given) (10 µM)
0: all assays above

In the list so far, these contain an NH in an aromatic ring.
Cc1cc(Nc2nc(N[C@@H](C)c3ccc(F)cc3)c(C#N)cc2F)n[nH]1 (10 µM)
1: LIMK1 | LMTK2
2: INSRR
0: all other assays above

Cc1cc2cc(Nc3ccnc(Nc4ccc5[nH]c(C)cc5c4)n3)ccc2[nH]1 (2.5 µM)
2: LMTK2
0: all other assays above

(cont.)

N#Cc1cccc(-c2c[nH]c3ncnc(N4CCOCC4)c23)c1 (10 µM)
0: all assays above

CS(=O)(=O)c1ccc(-c2noc(C(F)(F)F)c2-c2ccccc2)cc1 (10 µM)
0: all assays above

CN(CC(=O)N(Cc1ccc(C2CCCCC2)cc1)c1ccc(C(=O)O)cc1)S(=O)(=O)c1c(F)c(F)c(F)c(F)c1F (2.5 µM)
0: all assays above

Cc1csc(-c2nnc(Nc3ccc(Oc4ncccc4-c4ccnc(N)n4)cc3)c3ccccc23)c1 (2.5 µM)
0: all assays above

COc1cc([N+](=O)[O-])ccc1S(=O)(=O)N1C[C@@H](CN2CCN(c3ccccn3)CC2)[C@H](c2cccc(F)c2)C1 (relative stereo) (10 µM)
0: all assays above

CO[C@H]1C[C@@H]2CC[C@@H](C)[C@@](O)(O2)C(=O)C(=O)N2CCCC[C@H]2C(=O)O[C@H]([C@H](C)C[C@@H]2CC[C@@H](O)[C@H](OC)C2)CC(=O)[C@H](C)/C=C(\C)[C@@H](O)[C@@H](OC)C(=O)[C@H](C)C[C@H](C)/C=C/C=C/C=C/1C [Rapamycin] (10 µM)
0: all assays above

Cc1cc([C@H](C)Nc2ccccc2)c2oc(N3CCOCC3)cc(=O)c2c1 (10 µM)
0: all assays above

OCCNC1CCCc2c1[nH]c1ccc(-c3ccccc3)cc21 (stereo not given) (2.5 µM)
5: LIMK2
3: LIMK1
1: FYN | INSRR | LYN
2: HER2
0: all other assays above

COc1ccc(C(=C2C(=O)Nc3ccccc32)c2ccc(OC)cc2)cc1 (10 µM)
1: FLT3
0: all other assays above

C/C(=C1/C(=O)Nc2ccc(NC(N)=O)cc21)c1ccc[nH]1 (10 µM)
3: IRAK3
0: all other assays above

COc1ccc([C@@H]2CC(=O)c3c(O)cc(O)cc3O2)cc1O [Hesperetin] (10 µM)
0: all assays above
